In US10206937B2, “Boronic acid derivatives and therapeutic uses thereof” (Qpex Biopharma, Inc., priority 2014, dated 2019):
This continues a long series; more values of the same kind are listed elsewhere.

Test system: strains of Enterobacteriaceae producing various carbapenemases (class A, D and B; 169 strains)
Test: Meropenem or tebipenem potentiation by Compounds 97 or 62 (MIC)
Format: cell-based
Procedure: The largest panel of clinical isolates expressing class A, D and B carbapenemases alone or in combination with other beta-lactamases (169 strains) was used to evaluate carbapenem potentiation activity of Compounds 97 and 62. MIC for meropenem and tebipenem of these strains were determined either alone or in the presence of Compounds 97 or 62, respectively, at a fixed concentration of 8 μg/ml in the growth media.

C[C@@H](O)[C@H]1C(=O)N2C(C(=O)O)=C(S[C@@H]3CN[C@H](C(=O)N(C)C)C3)[C@H](C)[C@H]12 [M] was tested. Which “Meropenem MIC alone (M)” value (CF1012 Citrobacter freundii KPC-2) did it give?
The value was “Y (MIC of 1 μg/mL to 10 μg/mL)”.

What about the “Meropenem MIC alone (M)” value (CF1021 Citrobacter freundii CMY-type, VIM-1) of the same compound?
Its value is “Y (MIC of 1 μg/mL to 10 μg/mL)”.

What about the “Meropenem MIC alone (M)” value (EA1019 Enterobacter aerogenes SHV-5, VIM-1) of the same compound?
Its value is “Z (MIC of greater than 10 μg/mL)”.

And the “Meropenem MIC alone (M)” value (EC1007 Escherichia coli KPC-3)?
Its value is “Y (MIC of 1 μg/mL to 10 μg/mL)”.

And the “Meropenem MIC alone (M)” value (EC1064 Escherichia coli NDM-1, CMY-6, CTX-M-15)?
Its value is “Z (MIC of greater than 10 μg/mL)”.

What about the “Meropenem MIC alone (M)” value (EC1065 Escherichai coli IMP-1 CMY-2) of the same compound?
Its value is “Y (MIC of 1 μg/mL to 10 μg/mL)”.

And the “Meropenem MIC alone (M)” value (EC1068 Escherichia coli VIM-1)?
The value was “Z (MIC of greater than 10 μg/mL)”.

What about the “Meropenem MIC alone (M)” value (EC1073 Escherichia coli OXA-48) of the same compound?
The value was “Z (MIC of greater than 10 μg/mL)”.

And the “Meropenem MIC alone (M)” value (EC1074 Escherichia coli KPC-2, SHV-12)?
Its value is “Z (MIC of greater than 10 μg/mL)”.

And the “Meropenem MIC alone (M)” value (EC1076 Escherichia coli NDM-1 CMY-2)?
The value was “Z (MIC of greater than 10 μg/mL)”.

What about the “Meropenem MIC alone (M)” value (ECL1004 Enterobacter cloacae NMC-A) of the same compound?
Its value is “Z (MIC of greater than 10 μg/mL)”.

What about the “Meropenem MIC alone (M)” value (ECL1026 Enterobacter cloacae KPC-2, TEM-1) of the same compound?
Its value is “Y (MIC of 1 μg/mL to 10 μg/mL)”.

What about the “Meropenem MIC alone (M)” value (ECL1036 Enterobacter cloacae KPC-3, TEM-1) of the same compound?
The value was “Y (MIC of 1 μg/mL to 10 μg/mL)”.

What about the “Meropenem MIC alone (M)” value (ECL1058 Enterobacter cloacae KPC-3, SHV-11, TEM-1) of the same compound?
The value was “Y (MIC of 1 μg/mL to 10 μg/mL)”.

And the “Meropenem MIC alone (M)” value (ECL1059 Enterobacter cloacae KPC-3, SHV-12, TEM-1)?
Its value is “Y (MIC of 1 μg/mL to 10 μg/mL)”.

What about the “Meropenem MIC alone (M)” value (ECL1061 Enterobacter cloacae KPC-3, Hyper AmpC expression) of the same compound?
Its value is “Y (MIC of 1 μg/mL to 10 μg/mL)”.

What about the “Meropenem MIC alone (M)” value (ECL1079 Enterobacter cloacae KPC TEM) of the same compound?
The value was “Z (MIC of greater than 10 μg/mL)”.

And the “Meropenem MIC alone (M)” value (ECL1082 Enterobacter cloacae VIM-1)?
The value was “Y (MIC of 1 μg/mL to 10 μg/mL)”.

And the “Meropenem MIC alone (M)” value (KP1001 Klebsiella pneumoniae KPC TEM SHV)?
Its value is “Z (MIC of greater than 10 μg/mL)”.

And the “Meropenem MIC alone (M)” value (KP1002 Klebsiella pneumoniae KPC TEM SHV)?
The value was “Z (MIC of greater than 10 μg/mL)”.

And the “Meropenem MIC alone (M)” value (KP1003 Klebsiella pneumoniae KPC TEM SHV)?
The value was “Z (MIC of greater than 10 μg/mL)”.

And the “Meropenem MIC alone (M)” value (KP1004 Klebsiella pneumoniae KPC-2, TEM-1, SHV-11)?
Its value is “Z (MIC of greater than 10 μg/mL)”.

And the “Meropenem MIC alone (M)” value (KP1008 Klebsiella pneumoniae KPC-2)?
Its value is “Y (MIC of 1 μg/mL to 10 μg/mL)”.

And the “Meropenem MIC alone (M)” value (KP1014 Klebsiella pneumoniae Vim-1, TEM, SHV)?
The value was “Z (MIC of greater than 10 μg/mL)”.

And the “Meropenem MIC alone (M)” value (KP1015 Klebsiella pneumoniae VIM-1, SHV)?
The value was “Z (MIC of greater than 10 μg/mL)”.

And the “Meropenem MIC alone (M)” value (KP1082 Klebsiella pneumoniae KPC-2, SHV-1)?
The value was “Z (MIC of greater than 10 μg/mL)”.

What about the “Meropenem MIC alone (M)” value (KP1083 Klebsiella pneumoniae KPC-3, SHV-1, TEM-1) of the same compound?
Its value is “Z (MIC of greater than 10 μg/mL)”.

And the “Meropenem MIC alone (M)” value (KP1084 Klebsiella pneumoniae KPC-3, SHV-11, TEM-1)?
The value was “Z (MIC of greater than 10 μg/mL)”.

What about the “Meropenem MIC alone (M)” value (KP1086 Klebsiella pneumoniae TEM, SHV, CTX-M-15, OXA-48) of the same compound?
The value was “Z (MIC of greater than 10 μg/mL)”.

And the “Meropenem MIC alone (M)” value (KP1087 Klebsiella pneumoniae KPC-2, CTX-M-15, SHV-11, TEM-1)?
Its value is “Z (MIC of greater than 10 μg/mL)”.

And the “Meropenem MIC alone (M)” value (KP1088 Klebsiella pneumoniae KPC-3, SHV-11, TEM-1)?
The value was “Z (MIC of greater than 10 μg/mL)”.

What about the “Meropenem MIC alone (M)” value (KP1089 Klebsiella pneumoniae TEM, SHV, CTX-M-15, OXA-181) of the same compound?
The value was “Y (MIC of 1 μg/mL to 10 μg/mL)”.

What about the “Meropenem MIC alone (M)” value (KP1092 Klebsiella pneumoniae SHV-11, SHV-12, TEM-1, KPC) of the same compound?
Its value is “Z (MIC of greater than 10 μg/mL)”.

What about the “Meropenem MIC alone (M)” value (KP1093 Klebsiella pneumoniae KPC-3 TEM SHV-11) of the same compound?
Its value is “Z (MIC of greater than 10 μg/mL)”.

What about the “Meropenem MIC alone (M)” value (KP1094 Klebsiella pneumoniae KPC-2 TEM-1 LEN-17) of the same compound?
The value was “Z (MIC of greater than 10 μg/mL)”.

What about the “Meropenem MIC alone (M)” value (KP1095 Klebsiella pneumoniae KPC-2 TEM-1 SHV-1) of the same compound?
The value was “Y (MIC of 1 μg/mL to 10 μg/mL)”.

And the “Meropenem MIC alone (M)” value (KP1096 Klebsiella pneumoniae KPC-2 TEM-181 SHV-11)?
The value was “Z (MIC of greater than 10 μg/mL)”.

What about the “Meropenem MIC alone (M)” value (KP1097 Klebsiella pneumoniae IMP-1 SHV) of the same compound?
Its value is “Z (MIC of greater than 10 μg/mL)”.

And the “Meropenem MIC alone (M)” value (KP1098 Klebsiella pneumoniae IMP-26 TEM SHV)?
Its value is “Z (MIC of greater than 10 μg/mL)”.

And the “Meropenem MIC alone (M)” value (KP1099 Klebsiella pneumoniae KPC-2 SHV)?
The value was “Z (MIC of greater than 10 μg/mL)”.

And the “Meropenem MIC alone (M)” value (KP1100 Klebsiella pneumoniae KPC-3 TEM SHV)?
The value was “Z (MIC of greater than 10 μg/mL)”.

What about the “Meropenem MIC alone (M)” value (KP1101 Klebsiella pneumoniae KPC-2 TEM SHV) of the same compound?
The value was “Z (MIC of greater than 10 μg/mL)”.

What about the “Meropenem MIC alone (M)” value (KP1102 Klebsiella pneumoniae KPC-3 TEM SHV) of the same compound?
The value was “Z (MIC of greater than 10 μg/mL)”.

What about the “Meropenem MIC alone (M)” value (KP1104 Klebsiella pneumoniae KPC, TEM) of the same compound?
The value was “Z (MIC of greater than 10 μg/mL)”.

And the “Meropenem MIC alone (M)” value (KP1105 Klebsiella pneumoniae KPC, SHV, TEM)?
Its value is “Z (MIC of greater than 10 μg/mL)”.

What about the “Meropenem MIC alone (M)” value (KP1237 Klebsiella pneumoniae OXA-48 TEM SHV CTX-M-15) of the same compound?
The value was “Z (MIC of greater than 10 μg/mL)”.

And the “Meropenem MIC alone (M)” value (KP1239 Klebsiella pneumoniae OXA-48 SHV)?
Its value is “Z (MIC of greater than 10 μg/mL)”.

What about the “Meropenem MIC alone (M)” value (KP1240 Klebsiella pneumoniae OXA-181 SHV CTX-M-15) of the same compound?
The value was “Z (MIC of greater than 10 μg/mL)”.

What about the “Meropenem MIC alone (M)” value (KP1241 Klebsiella pneumoniae OXA-181 TEM SHV CTX-M-15) of the same compound?
Its value is “Z (MIC of greater than 10 μg/mL)”.

And the “Meropenem MIC alone (M)” value (KP1242 Klebsiella pneumoniae KPC-2, SHV-12 TEM)?
Its value is “Z (MIC of greater than 10 μg/mL)”.

And the “Meropenem MIC alone (M)” value (KP1243 Klebsiella pneumoniae KPC-2 SHV VIM-1)?
The value was “Z (MIC of greater than 10 μg/mL)”.

And the “Meropenem MIC alone (M)” value (KP1244 Klebsiella pneumoniae KPC SHV TEM + 1.9 kb)?
The value was “Z (MIC of greater than 10 μg/mL)”.

And the “Meropenem MIC alone (M)” value (KP1245 Klebsiella pneumoniae KPC SHV TEM + 1.9 kb)?
The value was “Z (MIC of greater than 10 μg/mL)”.

And the “Meropenem MIC alone (M)” value (KP1246 Klebsiella pneumoniae KPC SHV TEM + 1.9 kb)?
Its value is “Z (MIC of greater than 10 μg/mL)”.

And the “Meropenem MIC alone (M)” value (KP1247 Klebsiella pneumoniae IMP TEM SHV)?
Its value is “Z (MIC of greater than 10 μg/mL)”.

What about the “Meropenem MIC alone (M)” value (KP1248 Klebsiella pneumoniae OXA-232 SHV CTX-M-15) of the same compound?
Its value is “Z (MIC of greater than 10 μg/mL)”.

And the “Meropenem MIC alone (M)” value (KP1249 Klebsiella pneumoniae OXA-232 SHV)?
Its value is “Z (MIC of greater than 10 μg/mL)”.

What about the “Meropenem MIC alone (M)” value (KP1250 Klebsiella pneumoniae NDM-1 TEM SHV SMY-2 CTX-M-15) of the same compound?
The value was “Z (MIC of greater than 10 μg/mL)”.

What about the “Meropenem MIC alone (M)” value (KP1252 Klebsiella pneumoniae KPC TEM SHV) of the same compound?
The value was “Z (MIC of greater than 10 μg/mL)”.

What about the “Meropenem MIC alone (M)” value (KPM1123 Klebsiella pneumoniae KPC-2 TEM SHV) of the same compound?
Its value is “Z (MIC of greater than 10 μg/mL)”.

What about the “Meropenem MIC alone (M)” value (KPM1202 Klebsiella pneumoniae KPC SHV TEM) of the same compound?
The value was “Z (MIC of greater than 10 μg/mL)”.

What about the “Meropenem MIC alone (M)” value (KPM1203 Klebsiella pneumoniae KPC SHV TEM) of the same compound?
Its value is “Y (MIC of 1 μg/mL to 10 μg/mL)”.

And the “Meropenem MIC alone (M)” value (KPM1344 Klebsiella pneumoniae VIM-1)?
Its value is “Y (MIC of 1 μg/mL to 10 μg/mL)”.

And the “Meropenem MIC alone (M)” value (KPM1345 Klebsiella pneumoniae VIM-1 SHV)?
The value was “Z (MIC of greater than 10 μg/mL)”.

What about the “Meropenem MIC alone (M)” value (KPM1346 Klebsiella pneumoniae NDM-1 TEM SHV CTX-M-15 CMY) of the same compound?
The value was “Z (MIC of greater than 10 μg/mL)”.

What about the “Meropenem MIC alone (M)” value (KPM1347 Klebsiella pneumoniae NDM-1 SHV CTX-M-15) of the same compound?
The value was “Z (MIC of greater than 10 μg/mL)”.

And the “Meropenem MIC alone (M)” value (KX1017 Klebsiella oxytoca KPC-2, OXA-2, SHV-30)?
Its value is “Y (MIC of 1 μg/mL to 10 μg/mL)”.

And the “Meropenem MIC alone (M)” value (KX1018 Klebsiella oxytoca KPC-2, SHV-40, OXY-1)?
The value was “Y (MIC of 1 μg/mL to 10 μg/mL)”.

What about the “Meropenem MIC alone (M)” value (KX1019 Klebsiella oxytoca KPC-2, OXA-2) of the same compound?
The value was “Y (MIC of 1 μg/mL to 10 μg/mL)”.
